# Experimental data: PubChem BioAssay AID1259405 (NCATS, 2018)
# Assay: 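Silenced genes that increase secreted GFP made by CHO cells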 (primary screen)
# System: Chinese hamster CHO-K1 ovary cells with stable secreted eGFP expression
# Reagents: single siRNA against mouse genes, 0.8 pmol siRNA per well (2 µl of 400 nM stock)
# Duration: 3 days
# Detection: 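Per-well intracellular GFP measured by laser scanning cytometry, plus viability from ATP luminescence, each relative to plate median of non-targeting control wells, in %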
# Reading the numbers: GFP, % of control: higher = more GFP per well, higher productivity; viability (ATP), % of control: higher = more viable cells (more ATP)
# Active means: 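a knock-down is called active if GFP reaches 120% or more of non-targeting control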
# Here is a random part of about 50,000 deposited reagents. About 4,000 of all reagents (8%) were called active. 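Mouse siRNA library applied to hamster cells; one well for each siRNA.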 No sequences are given here.
The first 9 entries as a preview:
target gene,PubChem SID,"GFP, % of control","viability (ATP), % of control",outcome
Ccdc88a,SID363555367,74.6,58.9,inactive
Ccdc88a,SID363564028,66.4,73.5,inactive
Ccdc88a,SID363587574,90,111,inactive
Zbtb25,SID363573681,122,122,active
Zbtb25,SID363581425,73.1,60.9,inactive
Zbtb25,SID363583889,106,102,inactive
Prss43,SID363547540,136,102,active
Prss43,SID363558309,82.6,95.6,inactive
Prss43,SID363560067,79.6,76.6,inactive

The list itself, from the first entry:
target gene,PubChem SID,"GFP, % of control","viability (ATP), % of control",outcome
Ccdc88a,SID363555367,74.6,58.9,inactive
Ccdc88a,SID363564028,66.4,73.5,inactive
Ccdc88a,SID363587574,90,111,inactive
Zbtb25,SID363573681,122,122,active
Zbtb25,SID363581425,73.1,60.9,inactive
Zbtb25,SID363583889,106,102,inactive
Prss43,SID363547540,136,102,active
Prss43,SID363558309,82.6,95.6,inactive
Prss43,SID363560067,79.6,76.6,inactive
Kif1b,SID363572203,84.1,73,inactive
Kif1b,SID363573963,67.1,57.3,inactive
Slc26a4,SID363574862,125,72,active
Slc26a4,SID363575918,125,115,active
Slc26a4,SID363580494,86.7,77.7,inactive
Daxx,SID363581921,75.3,103,inactive
Daxx,SID363589415,78.5,66.3,inactive
Atp5mc1,SID363545400,18.1,31.7,inactive
Atp5mc1,SID363548913,57.7,53.6,inactive
Atp5mc1,SID363562719,36.4,49.2,inactive
Entpd2,SID363547620,52.6,91.6,inactive
Entpd2,SID363558389,32.2,50.1,inactive
Entpd2,SID363560147,47.9,81.1,inactive
Plscr1,SID363545684,62.1,74.9,inactive
Plscr1,SID363549197,84.4,86.5,inactive
Plscr1,SID363563003,20.4,27.4,inactive
Cdk17,SID363570803,50.6,62.4,inactive
Zranb1,SID363572885,99.6,105,inactive
Zranb1,SID363577461,73.8,83,inactive
Zranb1,SID363580981,89.9,85.7,inactive
Slc25a16,SID363569950,62.8,76.7,inactive
Slc25a16,SID363576990,53.8,49.4,inactive
Slc25a16,SID363578398,75.3,55.2,inactive
Or2w25,SID363554425,49.1,57.9,inactive
Or2w25,SID363567872,53,69.9,inactive
Or2w25,SID363585229,53.2,98.7,inactive
Nepn,SID363544074,71.3,93.2,inactive
Nepn,SID363550402,113,33.9,inactive
Nepn,SID363556951,55.3,71.8,inactive
Hoxa11,SID363569525,61.9,78.2,inactive
Hoxa11,SID363577269,77.4,99.6,inactive
Hoxa11,SID363578677,54.2,43.7,inactive
Stc1,SID363572579,103,54.6,inactive
Stc1,SID363577859,115,84.8,inactive
Stc1,SID363582083,53.7,96.9,inactive
Or10d1c,SID363545035,87.7,54.1,inactive
Or10d1c,SID363551363,97.6,54.2,inactive
Or10d1c,SID363557912,62.3,56.2,inactive
Zbtb48,SID363555243,67.3,63.5,inactive
Zbtb48,SID363563904,79.1,55.9,inactive
Zbtb48,SID363587450,59.6,69.4,inactive
Hydin,SID363540487,40.9,52.4,inactive
Hydin,SID363542239,87.6,94.3,inactive
Hydin,SID363567155,70.8,84.1,inactive
Ccdc150,SID363542308,77.4,74.1,inactive
Ccdc150,SID363551799,60.3,39.5,inactive
Ccdc150,SID363559404,89.8,68.9,inactive
Cstf2,SID363569318,57.3,56.7,inactive
Cstf2,SID363577062,104,82,inactive
Cstf2,SID363578470,56.3,32.4,inactive
Rec8,SID363554972,66.5,87,inactive
Rec8,SID363568419,68.7,65.3,inactive
Rec8,SID363586478,62.3,78.9,inactive
Dolpp1,SID363575037,97.7,84.4,inactive
Dolpp1,SID363580669,85.5,63.9,inactive
Dolpp1,SID363582781,80,57.8,inactive
Ms4a6d,SID363544127,36.4,64.5,inactive
Ms4a6d,SID363544184,164,131,active
Ms4a6d,SID363550455,59.1,70.6,inactive
Ms4a6d,SID363550512,69.8,86.8,inactive
Ms4a6d,SID363557004,57.1,88.7,inactive
Ms4a6d,SID363557061,87.8,78.7,inactive
Vamp4,SID363553768,62.7,69.2,inactive
Vamp4,SID363561725,74.1,97.1,inactive
Vamp4,SID363565463,110,60,inactive
Crtam,SID363544131,51.4,54.2,inactive
Crtam,SID363550459,114,95.1,inactive
Crtam,SID363557008,77,66.3,inactive
Serpinb7,SID363573089,80.8,92.2,inactive
Serpinb7,SID363577665,65.9,82.5,inactive
Serpinb7,SID363581185,41.5,44.7,inactive
Kcnj9,SID363574872,82,97.7,inactive
Kcnj9,SID363575928,61.9,83.3,inactive
Kcnj9,SID363580504,48,67.2,inactive
Chac2,SID363547855,92.4,91.3,inactive
Chac2,SID363558624,52.7,91.4,inactive
Chac2,SID363560382,66.1,66.9,inactive
